# The supplement of paper PMC8728848
# The other results are listed elsewhere or left out.
# Key:
# Experiment in all cases: glycan array binding signal (z-score within array); higher = stronger binding
# Details in all cases: glycan notation: IUPAC condensed, linker removed
# [1] = target: Gal(b1-3)[Fuc(a1-4)]GlcNAc(b1-3)Gal(b1-4)[Fuc(a1-3)]GlcNAc
# How it was run: (§1)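 Glycan array binding is given as a within-array Z-score, which can be read as non-binding when negative. The arrays, 3228 of them, came from the Consortium for Functional Glycomics database and were retained only where the protein sequence was available. Z-scores were averaged across arrays of the same protein sequence at different concentrations or buffers and across linkers.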
# [2] = target: Gal(b1-3)[Fuc(a1-4)]GlcNAc(b1-6)GalNAc
# How it was run: as §1
# [3] = target: Gal(b1-3)[GlcNAc(b1-6)]GalNAc
# How it was run: as §1
# [4] = target: Gal(b1-3)[Neu5Ac(a2-6)]GalNAc
# How it was run: as §1
# [5] = target: Gal(b1-3)[Neu5Ac(a2-6)]GlcNAc(b1-4)Gal(b1-4)Glc
# How it was run: as §1
# [6] = target: Gal(b1-3)[Neu5Ac(b2-6)]GalNAc
# How it was run: as §1
# [7] = target: Gal(b1-4)Gal
# How it was run: as §1
# [8] = target: Gal(b1-4)GalNAc(a1-3)[Fuc(a1-2)]Gal(b1-4)GlcNAc
# How it was run: as §1
# [9] = target: Gal(b1-4)GalNAc(b1-3)[Fuc(a1-2)]Gal(b1-4)GlcNAc
# How it was run: as §1
# [10] = target: Gal(b1-4)Glc
# How it was run: as §1
# [11] = target: Gal(b1-4)Glc6S
# How it was run: as §1
# [12] = target: Gal(b1-4)GlcNAc
# How it was run: as §1
# [13] = target: Gal(b1-4)GlcNAc(a1-6)Gal(b1-4)GlcNAc
# How it was run: as §1
# [14] = target: Gal(b1-4)GlcNAc(b1-2)Man
# How it was run: as §1
# [15] = target: Gal(b1-4)GlcNAc(b1-2)Man(a1-3)Man(b1-4)GlcNAc(b1-4)GlcNAc
# How it was run: as §1
# [16] = target: Gal(b1-4)GlcNAc(b1-2)Man(a1-3)[Gal(b1-4)GlcNAc(b1-2)Man(a1-6)]Man(b1-4)GlcNAc(b1-4)GlcNAc
# How it was run: as §1
# [17] = target: Gal(b1-4)GlcNAc(b1-2)Man(a1-3)[Gal(b1-4)GlcNAc(b1-2)Man(a1-6)]Man(b1-4)GlcNAc(b1-4)[Fuc(a1-6)]GlcNAc
# How it was run: as §1
# [18] = target: Gal(b1-4)GlcNAc(b1-2)Man(a1-3)[Gal(b1-4)GlcNAc(b1-2)Man(a1-6)][Gal(b1-4)GlcNAc(b1-4)]Man(b1-4)GlcNAc(b1-4)[Fuc(a1-6)]GlcNAc
# How it was run: as §1
# [19] = target: Gal(b1-4)GlcNAc(b1-2)Man(a1-3)[Gal(b1-4)GlcNAc(b1-2)Man(a1-6)][GlcNAc(b1-4)]Man(b1-4)GlcNAc(b1-4)[Fuc(a1-6)]GlcNAc
# How it was run: as §1
# [20] = target: Gal(b1-4)GlcNAc(b1-2)Man(a1-3)[GlcNAc(b1-2)Man(a1-6)]Man(b1-4)GlcNAc(b1-4)GlcNAc
# How it was run: as §1
# [21] = target: Gal(b1-4)GlcNAc(b1-2)Man(a1-3)[GlcNAc(b1-4)][Gal(b1-4)GlcNAc(b1-2)Man(a1-6)]Man(b1-4)GlcNAc(b1-4)GlcNAc
# How it was run: as §1
# [22] = target: Gal(b1-4)GlcNAc(b1-2)Man(a1-3)[Man(a1-6)]Man(b1-4)GlcNAc(b1-4)GlcNAc
# How it was run: as §1
# [23] = target: Gal(b1-4)GlcNAc(b1-2)Man(a1-6)Man(b1-4)GlcNAc(b1-4)GlcNAc
# How it was run: as §1
# [24] = target: Gal(b1-4)GlcNAc(b1-2)Man(a1-6)[GlcNAc(b1-2)Man(a1-3)]Man(b1-4)GlcNAc(b1-4)GlcNAc
# How it was run: as §1
# [25] = target: Gal(b1-4)GlcNAc(b1-2)Man(a1-6)[Man(a1-3)]Man(b1-4)GlcNAc(b1-4)GlcNAc
# How it was run: as §1
# [26] = target: Gal(b1-4)GlcNAc(b1-2)[Gal(b1-4)GlcNAc(b1-4)]Man(a1-3)[Gal(b1-4)GlcNAc(b1-2)Man(a1-6)]Man(b1-4)GlcNAc(b1-4)GlcNAc
# How it was run: as §1
# [27] = target: Gal(b1-4)GlcNAc(b1-2)[Gal(b1-4)GlcNAc(b1-4)]Man(a1-3)[Gal(b1-4)GlcNAc(b1-2)[Gal(b1-4)GlcNAc(b1-6)]Man(a1-6)]Man(b1-4)GlcNAc(b1-4)GlcNAc
# How it was run: as §1
# [28] = target: Gal(b1-4)GlcNAc(b1-2)[Gal(b1-4)GlcNAc(b1-4)]Man(a1-3)[GlcNAc(b1-4)][Gal(b1-4)GlcNAc(b1-2)Man(a1-6)]Man(b1-4)GlcNAc(b1-4)GlcNAc
# How it was run: as §1
# [29] = target: Gal(b1-4)GlcNAc(b1-2)[Gal(b1-4)GlcNAc(b1-4)]Man(a1-3)[GlcNAc(b1-4)][Gal(b1-4)GlcNAc(b1-2)[Gal(b1-4)GlcNAc(b1-6)]Man(a1-6)]Man(b1-4)GlcNAc(b1-4)GlcNAc
# How it was run: as §1
# [30] = target: Gal(b1-4)GlcNAc(b1-2)[Gal(b1-4)GlcNAc(b1-6)]Man(a1-6)[Gal(b1-4)GlcNAc(b1-2)Man(a1-3)]Man(b1-4)GlcNAc(b1-4)GlcNAc
# How it was run: as §1
# [31] = target: Gal(b1-4)GlcNAc(b1-2)[Gal(b1-4)GlcNAc(b1-6)]Man(a1-6)[Gal(b1-4)GlcNAc(b1-2)Man(a1-3)]Man(b1-4)GlcNAc(b1-4)[Fuc(a1-6)]GlcNAc
# How it was run: as §1
# [32] = target: Gal(b1-4)GlcNAc(b1-2)[Gal(b1-4)GlcNAc(b1-6)]Man(a1-6)[GlcNAc(b1-4)][Gal(b1-4)GlcNAc(b1-2)Man(a1-3)]Man(b1-4)GlcNAc(b1-4)GlcNAc
# How it was run: as §1
# [33] = target: Gal(b1-4)GlcNAc(b1-2)[Gal(b1-4)GlcNAc(b1-6)]Man(a1-6)[GlcNAc(b1-4)][Gal(b1-4)GlcNAc(b1-2)[Gal(b1-4)GlcNAc(b1-4)]Man(a1-3)]Man(b1-4)GlcNAc(b1-4)[Fuc(a1-6)]GlcNAc
# How it was run: as §1
# [34] = target: Gal(b1-4)GlcNAc(b1-3)Gal(b1-3)GalNAc
# How it was run: as §1
# [35] = target: Gal(b1-4)GlcNAc(b1-3)Gal(b1-3)GlcNAc
# How it was run: as §1
# [36] = target: Gal(b1-4)GlcNAc(b1-3)Gal(b1-4)Glc
# How it was run: as §1
# [37] = target: Gal(b1-4)GlcNAc(b1-3)Gal(b1-4)GlcNAc
# How it was run: as §1
# [38] = target: Gal(b1-4)GlcNAc(b1-3)Gal(b1-4)GlcNAc(b1-2)Man(a1-3)[Gal(b1-4)GlcNAc(b1-3)Gal(b1-4)GlcNAc(b1-2)Man(a1-6)]Man(b1-4)GlcNAc(b1-4)GlcNAc
# How it was run: as §1
binder,measurement,setting,value
LlpA (Burkholderia cenocepacia) (protein) MGSSHHHHHHSSGLVPRGSHKILGSNETLSAGNVVYSDNGQYHLAMQTDGNLVVYGPTGAVWQSQTSGSGGNRAVMQGDGNLVIYRADNTAAWSSKTAHPGAFLAVQDDGNVVIYWPRPAWASNTSDPATQQSAESKYLASGSTMSAGQTVTVAQYMLVFQADGNLVLYKNGGNPIWSTGTQGKGATYAVMQSDGNFVIYAGSTALWSTKTNGANGAQLVLQSDGNLVIYAPTAAWSTKFGLVTAPTSTSTSNNGPGSGICVGVCPPHPLNGNPFSPVGVGTTGLGFPTPGYPGAAF,glycan array binding signal (z-score),[1],0.651
same,glycan array binding signal (z-score),[2],-0.203
same,glycan array binding signal (z-score),[3],0.32
same,glycan array binding signal (z-score),[4],-1.02
same,glycan array binding signal (z-score),[5],0.368
same,glycan array binding signal (z-score),[6],-0.687
same,glycan array binding signal (z-score),[7],-0.293
same,glycan array binding signal (z-score),[8],-0.49
same,glycan array binding signal (z-score),[9],-0.789
same,glycan array binding signal (z-score),[10],0.078
same,glycan array binding signal (z-score),[11],-0.132
same,glycan array binding signal (z-score),[12],-1.08
same,glycan array binding signal (z-score),[13],-0.352
same,glycan array binding signal (z-score),[14],1.06
same,glycan array binding signal (z-score),[15],1.84
same,glycan array binding signal (z-score),[16],-0.66
same,glycan array binding signal (z-score),[17],0.328
same,glycan array binding signal (z-score),[18],-1.76
same,glycan array binding signal (z-score),[19],-1.76
same,glycan array binding signal (z-score),[20],-0.43
same,glycan array binding signal (z-score),[21],-0.313
same,glycan array binding signal (z-score),[22],-0.544
same,glycan array binding signal (z-score),[23],1.36
same,glycan array binding signal (z-score),[24],-0.327
same,glycan array binding signal (z-score),[25],0.084
same,glycan array binding signal (z-score),[26],-0.37
same,glycan array binding signal (z-score),[27],-0.85
same,glycan array binding signal (z-score),[28],-0.887
same,glycan array binding signal (z-score),[29],0.349
same,glycan array binding signal (z-score),[30],-0.242
same,glycan array binding signal (z-score),[31],0.096
same,glycan array binding signal (z-score),[32],-0.912
same,glycan array binding signal (z-score),[33],-0.834
same,glycan array binding signal (z-score),[34],-0.547
same,glycan array binding signal (z-score),[35],-0.242
same,glycan array binding signal (z-score),[36],-0.506
same,glycan array binding signal (z-score),[37],-0.792
same,glycan array binding signal (z-score),[38],1.04

# Part of the list above in a different format.
binder | measurement | setting | value
LlpA (Burkholderia cenocepacia) (protein) MGSSHHHHHHSSGLVPRGSHKILGSNETLSAGNVVYSDNGQYHLAMQTDGNLVVYGPTGAVWQSQTSGSGGNRAVMQGDGNLVIYRADNTAAWSSKTAHPGAFLAVQDDGNVVIYWPRPAWASNTSDPATQQSAESKYLASGSTMSAGQTVTVAQYMLVFQADGNLVLYKNGGNPIWSTGTQGKGATYAVMQSDGNFVIYAGSTALWSTKTNGANGAQLVLQSDGNLVIYAPTAAWSTKFGLVTAPTSTSTSNNGPGSGICVGVCPPHPLNGNPFSPVGVGTTGLGFPTPGYPGAAF | glycan array binding signal (z-score) | [9] | -0.789
same | glycan array binding signal (z-score) | [34] | -0.547
